# Laboratory results taken from PubChem BioAssay AID1487 (National Center for Advancing Translational Sciences (NCATS), 2009).
# Some of the results follow. Shown are side measurements of this screen, not its main read-out; they come without a call. Compounds called inactive in the main read-out are mostly missing here. Potencies come from curve fits of mixed quality, noted in brackets.
# Experiment: qHTS Assay for Modulators of Lamin A Splicing
# Details: HeLa LMNA splicing GFP/RFP minigene ratio, 48 h
# Excerpt: NCGC Assay Overview: Hutchinson-Gilford Progeria Syndrome (HGPS) is a pediatric premature aging disease caused by a spontaneous mutation in the lamin A/C (LMNA) gene. The mutation activates a cryptic splice site in the LMNA pre-mRNA which results in production of a pre-lamin A protein that cannot be processed properly. The mutant protein accumulates in the nucleus and negatively affects numerous cellular functions. Correction of the splicing defect in HGPS patient cells using a targeted oligonucleotide (exo11) leads to reversal of the cellular disease phenotypes. To identify small molecule modulators of aberrant LMNA splicing, a homogenous assay was constructed in HeLa cells that used a GFP containing minigene to report on correction of aberrant splicing in lamin A and a RFP (DsRed2) to report on cell viability, uniformity and nonspecific effects on the assay signal. This assay was adapted to laser-scanning microplate cytometry (Acumen, TTP Labtech) where miniaturization of the assay to a 1,536-well plate format was possible. References: Bowen, W. P.; Wylie, P. G. Application of Laser-Scanning Fluorescence Microplate Cytometry in High Content Screening. Assay Drug Dev Technol 2006;4:209-221. Scaffidi P, Misteli T. Reversal of the cellular phenotype in the premature aging disease Hutchinson-Gilford progeria syndrome. Nat.
# NCGC Assay Protocol Summary: Reagents/Controls: Stable clones expressing DsRed2 and lamin A-EGFP were generated by Cell and Molecular Technologies in S3 HeLa cells. HeLa cells were prepared for the assay when they were 70-90% confluent. The cells were counted and resuspended in Opti-MEM I (no phenol red; Gibco), 2% FBS, 1% penicillin/ streptomycin (Gibco) at concentration of 120 cells/uL concentration. The suspension was passed through a Falcon basket filter with pore size 40um (Beckton Dickson). Control titrations: column […] 1536-well plate contained a sixteen point titration (1:2 dilutions) in duplicate of ancitabine (Sigma: A8598) beginning at 40 uM final concentration. Column 2 contained a sixteen point titration (1:2 dilutions) of cycloheximide beginning at 1.4 mM final concentration. Column 3 contained ancitabine at 40 uM and column 4 contained was the vehicle control (0.5% DMSO final concentration). Assay Steps: 5 uL of HeLa cells were plated in Aurora LoBase black clear bottom (cyclic-olefin polymer) 1536-well plates at a final density of 600 cells/well. Controls and library compounds were added with a 1536-well pin array using the Kalypsys pin-tool. The plates were then incubated for 48 hrs in a cell-culture incubator (37 °C; 5% CO2, 98% humidity). Following incubation the plates were read on the Acumen Explorer using the 488 nm laser. Data was collected on objects between 10 and 100 um in size. Cell objects were defined by a 15 um width x 10 um depth filter. The ratio of the total object intensity in PMT1 (500-530 nm emission; GFP) over PMT3 (575-640 nm emission; RFP) was calculated for analysis. Keywords: NIH Roadmap, MLSCN, MLI, MLSMR, qHTS, NCGC, lamin A, Progeria, RNA splicing.
# [1] = measured here: GFP splicing reporter channel
# [2] = measured here: RFP viability control channel
Structure (SMILES),AC50 [1],AC50 [2]
O=C(Cc1csc(Nc2nc(=S)[nH]c3ccccc23)n1)N1CCN(c2cccc(C(F)(F)F)c2)CC1,"4.47 µM [falling, partial curve]","7.94 µM [falling, partial curve]"
CCN(CC)S(=O)(=O)c1ccc(-c2ccc(S(=O)(=O)N(CC)CC)cc2)cc1,,"7.94 µM [rising, partial curve]"
C=CCNC(=O)C(=O)NCCOc1ccccc1Cl,,"17.8 µM [rising, single point]"
O=C(c1cccc(NS(=O)(=O)c2ccc(F)c(F)c2)c1)N1CCN(C(c2ccccc2)c2ccccc2)CC1,,"2.82 µM [rising, partial curve]"
COc1ccc(CCNC(=O)CSCc2c(F)cccc2Cl)cc1OC,,"4.47 µM [rising, partial curve, poor fit]"
CC1(C)CC(C(CC(=O)O)c2ccccc2)CCO1 (centres undefined),"0.01 µM [rising, full curve, poor fit]",
CC(=O)Nc1nc(-c2ccccc2)nc(-c2ccccc2OC(C)=O)n1,"14.1 µM [rising, single point]","11.2 µM [rising, partial curve]"
Cc1ccccc1-c1nnc(SCC(=O)N(C)C2CCCCC2)o1,"0.00447 µM [rising, full curve, poor fit]",
COc1ccc(-c2noc(-c3ccccc3C(=O)Nc3cccc(OC)c3)n2)cc1,,"0.00447 µM [rising, full curve, poor fit]"
CCN(C(=O)Cn1cnc2onc(-c3ccc(F)cc3)c2c1=O)c1cc(C)ccc1C,"5.62 µM [falling, partial curve]",
CCc1ccc(Nc2cc(=O)n(C3CCCCC3)c(=O)[nH]2)cc1,,"22.4 µM [rising, single point]"
COc1ccc(-n2nc3cc(C)c(NC(=S)NC(=O)c4ccccc4C)cc3n2)cc1,"12.6 µM [falling, partial curve]","11.2 µM [falling, partial curve]"
Cc1ccc(-c2csc(=Nc3cccnc3)n2CCCn2ccnc2)cc1C,"7.94 µM [rising, partial curve]","12.6 µM [rising, partial curve]"
COc1cccc(Cc2nc3ccccc3nc2SCC(=O)NCc2ccc(C)cc2)c1,"1.58 µM [rising, partial curve]","0.631 µM [rising, partial curve]"
Cc1nn2c(nc(N3CCOCC3)c3ccccc32)c1C=C(C#N)C#N,,"22.4 µM [rising, single point]"
Cn1c(N)c(C(=O)COC(=O)CCCOc2ccc(Cl)cc2Cl)c(=O)n(C)c1=O,"0.398 µM [rising, full curve]","0.0794 µM [rising, full curve, poor fit]"
O=C(COc1ccccc1O)Nc1ccccc1Cl,"35.5 µM [rising, single point]",
CN1/C(=C\C(=O)C[n+]2cccc(C(N)=O)c2)C(C)(C)c2ccccc21,"0.00631 µM [falling, full curve, poor fit]","0.0224 µM [falling, full curve, poor fit]"
COc1ccc(C)cc1N/C(N)=N/c1nc(C)cc(C)n1,"25.1 µM [falling, single point]",

Structure (SMILES),AC50 [1],AC50 [2]
Cc1ccc(NC(=O)c2ccccc2NC(=O)CCC(=O)O)cc1,,"0.0282 µM [falling, full curve, poor fit]"
Cc1ccc(P(=O)(CSC(=N)N)c2ccc(C)cc2)cc1,"2 µM [rising, partial curve, poor fit]","0.398 µM [rising, full curve, poor fit]"
Oc1c(CN2CCc3ccccc3C2)cc(Cl)c2cccnc12,"14.1 µM [falling, single point]",
CCOc1ccc(NS(=O)(=O)c2ccc(NC(=S)NC(=O)C(C)C)cc2)cc1,,"35.5 µM [rising, single point]"
Cn1c(=O)c2c(nc(N/N=C/c3ccc(OC(=O)c4ccco4)cc3)n2Cc2ccccc2)n(C)c1=O,"22.4 µM [rising, partial curve]","14.1 µM [rising, partial curve]"
O=C(N/N=C\c1ccc([N+](=O)[O-])s1)c1cncc(Br)c1,"10 µM [rising, partial curve]","11.2 µM [rising, partial curve]"
O=C(Nc1ccc(S(=O)(=O)NCc2ccccc2)cc1)c1ccc(Br)o1,"15.8 µM [rising, single point]","12.6 µM [rising, partial curve]"
COc1ccc(CCC(=O)N2CCN(S(=O)(=O)c3ccc4ccccc4c3)CC2)cc1,"12.6 µM [rising, partial curve]","17.8 µM [rising, single point]"
COc1ccc(N2C(=O)CS(=O)(=O)C23C(=O)N(Cc2ccc(C)cc2)c2ccccc23)cc1Cl (centres undefined),,"14.1 µM [rising, single point]"
O=c1c2c(ncn2C2CCCC2)n(Cc2ccccc2)c(=O)n1CCOc1ccc(Br)cc1,,"10 µM [rising, partial curve]"
O=C1c2cccnc2C(Nc2cccc(F)c2)N1Cc1ccco1 (centres undefined),,"0.0891 µM [rising, full curve]"
Cc1sc(NC(=O)Cc2ccc3c(c2)OCO3)nc1-c1ccc2c(c1)CCN2C(=O)c1cccc(F)c1,"3.55 µM [rising, partial curve]","4.47 µM [rising, full curve]"
COC(=O)CCCC1=CC2=CC(=O)C(C)(OC(=O)c3cccs3)C(=O)C2=CN1C1CCCCC1 (centres undefined),,"0.0112 µM [falling, full curve, poor fit]"
Cc1cccc(Cc2cnc(N3C(=N)SC(C)C3=O)s2)c1 (centres undefined),,"15.8 µM [rising, single point]"
Cc1nc2sc(C(=O)c3ccccc3)c(N)c2c(C)c1C,"11.2 µM [falling, partial curve]",
CCn1c2ccccc2c2cc(/C=N/NC(=O)c3ccccc3C)ccc21,,"4.47 µM [rising, single point]"
Cc1ccccc1CSc1ccc(-c2ccc3c(c2)OCO3)nn1,"17.8 µM [rising, single point]","35.5 µM [rising, single point]"
O=C(Nn1c(C2CCCCC2)nc2ccccc2c1=O)c1ccc([N+](=O)[O-])cc1,"15.8 µM [falling, single point]",
CCOC(=O)N1CCC(NS(=O)(=O)c2cc(Br)cnc2N)CC1,"7.94 µM [rising, partial curve]",

Structure (SMILES),AC50 [1],AC50 [2]
CC(C)CCN(C(=O)Nc1ccccc1)C(C)c1cccs1 (centres undefined),"1.78 µM [falling, partial curve]","35.5 µM [falling, partial curve]"
S=c1[nH]nc(-c2ccco2)n1-c1ccccc1Cl,"5.62 µM [rising, partial curve, poor fit]",
Cc1cc(C(=O)N2CCN(c3ncccn3)CC2)c2cc(F)ccc2n1,"11.2 µM [rising, single point]",
O=c1nc(Nc2ccc(OCc3ccccc3)cc2)sc2ncccc12,"0.891 µM [falling, full curve, poor fit]",
Cc1ccc(-c2cc(C(=O)NCCCn3ccnc3)c3ccccc3n2)s1,"4.47 µM [rising, full curve, poor fit]",
COc1ccccc1NC(=S)Nc1cccc2cnccc12,,"7.94 µM [rising, partial curve]"
CCOc1ccccc1NC(=O)N1CCC(NC(=O)c2cccc(C)c2)CC1,,"11.2 µM [rising, single point]"
Cc1ccc(-c2nc(C#N)c(NCC3CCCO3)o2)cc1 (centres undefined),,"12.6 µM [falling, partial curve]"
COc1cc(-c2ccccc2)nc2ccccc12,,"35.5 µM [rising, single point]"
Cc1cc(C)cc(OCC(=O)N2N=C(c3cccnc3)CC2(O)C(F)(F)F)c1 (centres undefined),"20 µM [rising, single point]","31.6 µM [rising, single point]"
O=c1c2cnn(-c3ccccc3)c2ncn1Cc1ccccc1F,"6.31 µM [rising, partial curve, poor fit]","12.6 µM [rising, partial curve]"
O=C(Nc1ccc(Br)cc1)c1ccc(F)c(S(=O)(=O)N2CCc3ccccc32)c1,,"7.08 µM [rising, partial curve]"
COc1ccc(/C=N/N=C2/CC(C)(C)Cc3n[nH]c(=O)cc32)cc1,,"15.8 µM [rising, partial curve]"
Cc1ccc(NC(=O)CN(C)CC(=O)Nc2ccccc2-c2ccccc2)cc1,"0.316 µM [falling, full curve]",
CCCOc1nc2c(c(=O)n(C)c(=O)n2C)n1CCC,"35.5 µM [rising, single point]",
COc1cc(CSc2ncn[nH]2)c(OC)cc1CSc1ncn[nH]1,,"12.6 µM [falling, partial curve]"
Cc1ccc(S(=O)(=O)C(CNC(=O)C(=O)NCc2ccccc2C)c2cccs2)cc1 (centres undefined),"22.4 µM [falling, single point]",
COc1ccc(C(=O)/C=C/Nc2c(C)n(C)n(-c3ccccc3)c2=O)cc1OC,,"35.5 µM [rising, single point]"
COc1ccc(N=c2cc(-c3ccc(O)cc3)oc3ccccc23)cc1,,"10 µM [rising, partial curve, poor fit]"

# In the list so far, two have a CF3 group.
Structure (SMILES),AC50 [1],AC50 [2]
O=C(Cc1csc(Nc2nc(=S)[nH]c3ccccc23)n1)N1CCN(c2cccc(C(F)(F)F)c2)CC1,"4.47 µM [falling, partial curve]","7.94 µM [falling, partial curve]"
Cc1cc(C)cc(OCC(=O)N2N=C(c3cccnc3)CC2(O)C(F)(F)F)c1 (centres undefined),"20 µM [rising, single point]","31.6 µM [rising, single point]"
